{"source": "the supplement of paper PMC8728848", "binders": {"B1": {"name": "PX14343C-bfa-541-26-541 (Bacteroides fragilis) (protein)", "chain": "KAPLDEIADDSFWSDETLVKYYVNDLYSEISVDGLQLQENRSDNSVSAQRDKYRASWFKFNYDMVSASDPQDDDVWEDYYVKVRKCNRFFERIGTSTIEESEKSRLTGEVHFLRAMFYFEMVKRYGGVILLDKVLTMEDNWEIPRSSEKECYDFILEDLKKATEMLPASYGSREKGRATKGAAYALKSRVELYDKRYEDVIKSCAEVYKLGYELVDGTTPEKYRSIWWTTNKDNKEIIFDVQYKSPDVYNNMMVCNMVTYINDKYGDRGWGGLGPTQELIDAFEMADGTPATQYSQAPADQVFDINTCGIYEGREPRFYANIVFHGSQIFFNADKGAVTVDRYLMDTPDKGDGSLTGYNVWKWIDYDNYNYPYAGAGSPDFSTNWIILRYAEIYLNDAEARLETGDVEGARKAVNMIRQRVGLPDLTESDPEKLRELIRKERRIEFAFEEQRFYDVRRWKIGPETQTTLHGVRFVSPTEFKVTKTDIRTWNDRLYLTPVPHDEIVRSSVLKQNLGY"}}, "assay_in_all_cases": "glycan array binding signal (z-score within array); higher = stronger binding", "conditions_in_all_cases": "glycan notation: IUPAC condensed, linker removed", "key": {"Gal3S6S(b1-4)GlcNAc": {"molecular_target": "Gal3S6S(b1-4)GlcNAc", "procedure,_shortened": "(§1)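 The binding signal is a Z-score computed within each array and averaged over linkers. Arrays of the same protein sequence at different concentrations or buffers were also averaged together. Data originate from 3228 arrays in the Consortium for Functional Glycomics database, kept only where the protein sequence was available.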"}, "Gal3S6S(b1-4)GlcNAc6S": {"molecular_target": "Gal3S6S(b1-4)GlcNAc6S", "procedure,_shortened": "as §1"}, "Gal4S(b1-4)GlcNAc": {"molecular_target": "Gal4S(b1-4)GlcNAc", "procedure,_shortened": "as §1"}, "Gal4S6S(b1-4)GlcNAc": {"molecular_target": "Gal4S6S(b1-4)GlcNAc", "procedure,_shortened": "as §1"}, "Gal6P(b1-4)GlcNAc": {"molecular_target": "Gal6P(b1-4)GlcNAc", "procedure,_shortened": "as §1"}, "Gal6S(b1-3)GlcNAc": {"molecular_target": "Gal6S(b1-3)GlcNAc", "procedure,_shortened": "as §1"}, "Gal6S(b1-3)GlcNAc6S": {"molecular_target": "Gal6S(b1-3)GlcNAc6S", "procedure,_shortened": "as §1"}, "Gal6S(b1-4)Glc": {"molecular_target": "Gal6S(b1-4)Glc", "procedure,_shortened": "as §1"}, "Gal6S(b1-4)Glc6S": {"molecular_target": "Gal6S(b1-4)Glc6S", "procedure,_shortened": "as §1"}, "Gal6S(b1-4)GlcNAc": {"molecular_target": "Gal6S(b1-4)GlcNAc", "procedure,_shortened": "as §1"}, "Gal6S(b1-4)GlcNAc6S": {"molecular_target": "Gal6S(b1-4)GlcNAc6S", "procedure,_shortened": "as §1"}, "GalNAc(a1-3)Gal": {"molecular_target": "GalNAc(a1-3)Gal", "procedure,_shortened": "as §1"}, "GalNAc(a1-3)GalNAc": {"molecular_target": "GalNAc(a1-3)GalNAc", "procedure,_shortened": "as §1"}, "[1]": {"molecular_target": "GalNAc(a1-3)GalNAc(b1-3)Gal(a1-4)Gal(b1-4)Glc", "procedure,_shortened": "as §1"}, "[2]": {"molecular_target": "GalNAc(a1-3)GalNAc(b1-3)Gal(a1-4)Gal(b1-4)GlcNAc", "procedure,_shortened": "as §1"}, "GalNAc(b1-3)Gal": {"molecular_target": "GalNAc(b1-3)Gal", "procedure,_shortened": "as §1"}, "[3]": {"molecular_target": "GalNAc(b1-3)Gal(a1-4)Gal(b1-4)GlcNAc", "procedure,_shortened": "as §1"}, "[4]": {"molecular_target": "GalNAc(b1-3)Gal(a1-4)Gal(b1-4)GlcNAc(b1-3)Gal(b1-4)Glc", "procedure,_shortened": "as §1"}, "[5]": {"molecular_target": "GalNAc(b1-3)Gal(a1-6)Gal(b1-4)Glc", "procedure,_shortened": "as §1"}, "GalNAc(b1-3)GalNAc": {"molecular_target": "GalNAc(b1-3)GalNAc", "procedure,_shortened": "as §1"}, "GalNAc(b1-3)GlcNAc": {"molecular_target": "GalNAc(b1-3)GlcNAc", "procedure,_shortened": "as §1"}, "GalNAc(b1-4)Gal(b1-4)Glc": {"molecular_target": "GalNAc(b1-4)Gal(b1-4)Glc", "procedure,_shortened": "as §1"}, "GalNAc(b1-4)GlcNAc": {"molecular_target": "GalNAc(b1-4)GlcNAc", "procedure,_shortened": "as §1"}, "[6]": {"molecular_target": "GalNAc(b1-4)GlcNAc(b1-2)Man", "procedure,_shortened": "as §1"}, "[7]": {"molecular_target": "GalNAc(b1-4)GlcNAc(b1-2)Man(a1-3)[GalNAc(b1-4)GlcNAc(b1-2)Man(a1-6)]Man(b1-4)GlcNAc(b1-4)GlcNAc", "procedure,_shortened": "as §1"}, "[8]": {"molecular_target": "GalNAc(b1-4)GlcNAc(b1-3)GalNAc(b1-4)GlcNAc", "procedure,_shortened": "as §1"}, "GalNAc(b1-4)GlcNAc6S": {"molecular_target": "GalNAc(b1-4)GlcNAc6S", "procedure,_shortened": "as §1"}, "GalNAc(b1-6)GalNAc": {"molecular_target": "GalNAc(b1-6)GalNAc", "procedure,_shortened": "as §1"}, "GalNAc3S(b1-4)GlcNAc": {"molecular_target": "GalNAc3S(b1-4)GlcNAc", "procedure,_shortened": "as §1"}, "GalNAc3S(b1-4)GlcNAc3S": {"molecular_target": "GalNAc3S(b1-4)GlcNAc3S", "procedure,_shortened": "as §1"}, "[9]": {"molecular_target": "GalNAc3S(b1-4)[Fuc(a1-3)]GlcNAc", "procedure,_shortened": "as §1"}, "GalNAc4S6S(b1-4)GlcNAc": {"molecular_target": "GalNAc4S6S(b1-4)GlcNAc", "procedure,_shortened": "as §1"}, "GalNAc6S(b1-4)GlcNAc": {"molecular_target": "GalNAc6S(b1-4)GlcNAc", "procedure,_shortened": "as §1"}, "Glc(a1-4)Glc": {"molecular_target": "Glc(a1-4)Glc", "procedure,_shortened": "as §1"}, "[10]": {"molecular_target": "Glc(a1-4)Glc(a1-4)Glc(a1-4)Glc", "procedure,_shortened": "as §1"}, "Glc(a1-6)Glc(a1-6)Glc": {"molecular_target": "Glc(a1-6)Glc(a1-6)Glc", "procedure,_shortened": "as §1"}, "[11]": {"molecular_target": "Glc(a1-6)Glc(a1-6)Glc(a1-6)Glc", "procedure,_shortened": "as §1"}, "Glc(b1-4)Glc": {"molecular_target": "Glc(b1-4)Glc", "procedure,_shortened": "as §1"}}, "note": "This is one part of the list."}
{"binder": "B1", "values": [{"measurement": "glycan array binding signal (z-score)", "setting": "Gal3S6S(b1-4)GlcNAc", "result": 0}, {"measurement": "glycan array binding signal (z-score)", "setting": "Gal3S6S(b1-4)GlcNAc6S", "result": -0.125}, {"measurement": "glycan array binding signal (z-score)", "setting": "Gal4S(b1-4)GlcNAc", "result": -0.84}, {"measurement": "glycan array binding signal (z-score)", "setting": "Gal4S6S(b1-4)GlcNAc", "result": 0.123}, {"measurement": "glycan array binding signal (z-score)", "setting": "Gal6P(b1-4)GlcNAc", "result": -0.386}, {"measurement": "glycan array binding signal (z-score)", "setting": "Gal6S(b1-3)GlcNAc", "result": -0.317}, {"measurement": "glycan array binding signal (z-score)", "setting": "Gal6S(b1-3)GlcNAc6S", "result": -0.427}, {"measurement": "glycan array binding signal (z-score)", "setting": "Gal6S(b1-4)Glc", "result": -0.235}, {"measurement": "glycan array binding signal (z-score)", "setting": "Gal6S(b1-4)Glc6S", "result": 1.46}, {"measurement": "glycan array binding signal (z-score)", "setting": "Gal6S(b1-4)GlcNAc", "result": -0.41}, {"measurement": "glycan array binding signal (z-score)", "setting": "Gal6S(b1-4)GlcNAc6S", "result": 2.26}, {"measurement": "glycan array binding signal (z-score)", "setting": "GalNAc(a1-3)Gal", "result": 0.821}, {"measurement": "glycan array binding signal (z-score)", "setting": "GalNAc(a1-3)GalNAc", "result": 0.247}, {"measurement": "glycan array binding signal (z-score)", "setting": "[1]", "result": -0.756}, {"measurement": "glycan array binding signal (z-score)", "setting": "[2]", "result": -0.938}, {"measurement": "glycan array binding signal (z-score)", "setting": "GalNAc(b1-3)Gal", "result": -0.663}, {"measurement": "glycan array binding signal (z-score)", "setting": "[3]", "result": 2.08}, {"measurement": "glycan array binding signal (z-score)", "setting": "[4]", "result": -0.667}, {"measurement": "glycan array binding signal (z-score)", "setting": "[5]", "result": 1.19}, {"measurement": "glycan array binding signal (z-score)", "setting": "GalNAc(b1-3)GalNAc", "result": -0.204}, {"measurement": "glycan array binding signal (z-score)", "setting": "GalNAc(b1-3)GlcNAc", "result": -0.191}, {"measurement": "glycan array binding signal (z-score)", "setting": "GalNAc(b1-4)Gal(b1-4)Glc", "result": -0.07}, {"measurement": "glycan array binding signal (z-score)", "setting": "GalNAc(b1-4)GlcNAc", "result": -0.418}, {"measurement": "glycan array binding signal (z-score)", "setting": "[6]", "result": -0.931}, {"measurement": "glycan array binding signal (z-score)", "setting": "[7]", "result": 3.4}, {"measurement": "glycan array binding signal (z-score)", "setting": "[8]", "result": 0.461}, {"measurement": "glycan array binding signal (z-score)", "setting": "GalNAc(b1-4)GlcNAc6S", "result": -1.13}, {"measurement": "glycan array binding signal (z-score)", "setting": "GalNAc(b1-6)GalNAc", "result": -0.726}, {"measurement": "glycan array binding signal (z-score)", "setting": "GalNAc3S(b1-4)GlcNAc", "result": -0.515}, {"measurement": "glycan array binding signal (z-score)", "setting": "GalNAc3S(b1-4)GlcNAc3S", "result": -0.887}, {"measurement": "glycan array binding signal (z-score)", "setting": "[9]", "result": -0.109}, {"measurement": "glycan array binding signal (z-score)", "setting": "GalNAc4S6S(b1-4)GlcNAc", "result": -0.04}, {"measurement": "glycan array binding signal (z-score)", "setting": "GalNAc6S(b1-4)GlcNAc", "result": -0.178}, {"measurement": "glycan array binding signal (z-score)", "setting": "Glc(a1-4)Glc", "result": -0.938}, {"measurement": "glycan array binding signal (z-score)", "setting": "[10]", "result": 0.357}, {"measurement": "glycan array binding signal (z-score)", "setting": "Glc(a1-6)Glc(a1-6)Glc", "result": 0.168}, {"measurement": "glycan array binding signal (z-score)", "setting": "[11]", "result": 0.433}, {"measurement": "glycan array binding signal (z-score)", "setting": "Glc(b1-4)Glc", "result": -0.686}]}
